Experimental data from PMC8262869.
These are yes or no findings as the source states them, for the method shown. Some entries that bind do so weakly or less than the wild type. For some assays here: Where a sequence is shown, tags or fusion partners need not be part of it.

Chains of the proteins cited; added tags and fusions are not shown.
UniProt Q56073: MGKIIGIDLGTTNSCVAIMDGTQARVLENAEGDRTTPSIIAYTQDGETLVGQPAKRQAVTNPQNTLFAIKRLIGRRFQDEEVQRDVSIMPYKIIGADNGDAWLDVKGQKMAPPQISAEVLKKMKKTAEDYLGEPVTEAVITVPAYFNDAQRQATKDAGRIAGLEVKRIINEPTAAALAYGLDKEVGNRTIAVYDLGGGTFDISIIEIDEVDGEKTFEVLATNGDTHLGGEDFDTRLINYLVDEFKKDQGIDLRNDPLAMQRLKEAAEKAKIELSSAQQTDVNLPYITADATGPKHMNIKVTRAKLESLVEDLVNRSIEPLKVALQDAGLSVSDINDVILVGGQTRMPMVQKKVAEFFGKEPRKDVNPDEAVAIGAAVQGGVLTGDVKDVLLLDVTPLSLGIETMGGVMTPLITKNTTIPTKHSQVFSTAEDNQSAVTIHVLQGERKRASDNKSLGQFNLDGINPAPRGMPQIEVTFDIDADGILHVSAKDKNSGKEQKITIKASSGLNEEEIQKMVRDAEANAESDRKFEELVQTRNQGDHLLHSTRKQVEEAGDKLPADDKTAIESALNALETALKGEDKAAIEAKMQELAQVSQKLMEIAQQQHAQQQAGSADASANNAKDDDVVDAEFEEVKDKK
UniProt P0A7Z7: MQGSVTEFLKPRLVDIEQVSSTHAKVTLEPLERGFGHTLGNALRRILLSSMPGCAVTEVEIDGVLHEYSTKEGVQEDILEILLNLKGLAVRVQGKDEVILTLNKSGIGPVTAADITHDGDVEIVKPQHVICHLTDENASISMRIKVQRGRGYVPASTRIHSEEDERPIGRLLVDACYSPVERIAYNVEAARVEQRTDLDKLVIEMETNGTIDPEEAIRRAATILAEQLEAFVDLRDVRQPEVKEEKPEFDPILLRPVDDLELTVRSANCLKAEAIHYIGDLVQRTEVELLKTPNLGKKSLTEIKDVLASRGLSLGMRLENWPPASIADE

Legend:
[1] = target: T1, reduced GST-DksA (Salmonella enterica serovar Typhimurium) (UniProt P0A1G5); experiment: pull-down; GST fusion (bait) on glutathione-Sepharose 4B beads, 50 mM Tris-HCl pH 7.5, 4°C, 2 h with C-terminally 6×His-tagged prey; wash 50 mM NaCl, elution 500 mM NaCl; anti-6×His immunoblot; both purified
T1 sequence: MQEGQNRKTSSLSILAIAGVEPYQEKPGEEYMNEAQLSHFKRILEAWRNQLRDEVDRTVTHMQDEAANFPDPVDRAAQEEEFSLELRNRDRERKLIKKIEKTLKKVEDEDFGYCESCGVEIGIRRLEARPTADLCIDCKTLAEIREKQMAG

[2] = target: T2, T18-DksA (Salmonella enterica serovar Typhimurium) (UniProt P0A1G5); experiment: two-hybrid; bacterial adenylate cyclase two-hybrid system (Euromedex), pKT25 and pUT18C fusions cotransformed into E. coli BTH101; β-galactosidase activity (Miller units) at stationary phase after 18 h at 30°C
T2 sequence: T1 sequence

Substance	binding [1]	binding [2]
DnaK-6×His (from UniProt Q56073 1-638)	no binding	
T25-RpoA (from UniProt P0A7Z7 1-329)		binds
